{"source": "patent US20210002725A1", "about": "“METHODS FOR THE DIAGNOSIS OF METABOLIC DISORDERS USING EPIMETABOLIC SHIFTERS, MULTIDIMENSIONAL INTRACELLULAR MOLECULES, OR ENVIRONMENTAL INFLUENCES” (Berg LLC, priority 2009, published 2021)", "test_system": "SK-MEL-28 mitochondria", "experiment": "LC-MS/MS quantification of Q10 and Q10H2 in mitochondrial enriched samples", "assay_type": "cell-based", "conditions": "100 μM Q10 in the media, 6 hr", "description": "Ten μl of each sample was injected."}
{"compound": "COC1=C(OC)C(=O)C(C/C=C(\\C)CC/C=C(\\C)CC/C=C(\\C)CC/C=C(\\C)CC/C=C(\\C)CC/C=C(\\C)CC/C=C(\\C)CC/C=C(\\C)CC/C=C(\\C)CCC=C(C)C)=C(C)C1=O", "note": "[Q10, Coenzyme Q10]", "values": [{"measurement": "Q9 in mitochondrial enriched sample", "value": "028", "unit": "ng/Sample"}]}
